This is a selection; strong and weak results do not stand in their true shares. Single values of this set are uncertain.

Compound in this experiment: COC(=O)/C=C/c1ccccc1 [methyl cinnamate]
The experiment in a line: log2 ratio of iodoacetamide-alkyne labeling of the cysteine site, DMSO over compound (competition); higher = stronger covalent engagement of the cysteine by the compound, active = 1 or more. The note with it: 500 µM; treatment time 1 h; system: HEK293T cell lysate. The gist of the method:
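Three replicates, each with duplicate channels, were prepared from HEK293T lysate (2 mg/mL) treated with vehicle or electrophile at 500 µM for 1 h at ambient temperature. Iodoacetamide alkyne was then applied for 1 h, and samples were clicked to sCIP-TMT reagents, pooled, trypsin-digested overnight at 37 °C, enriched on streptavidin, acid-eluted and analysed on Orbitrap Eclipse LC-MS/MS with FAIMS, with FragPipe quantification. The log2 competition ratio per cysteine is the mean control-channel divided by the mean compound-channel reporter intensity. Cysteines quantified in only one replicate were left out.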
As to NUMA1 C658 (UniProt Q14980), the “log2 ratio of iodoacetamide-alkyne labeling” value (“log2 ratio” below) is inactive: 0.187.

Take ZNF638 C1930 (UniProt Q14966): the “log2 ratio” value is inactive: -0.273.

As for NCAPD2 C1249 (UniProt Q15021), the “log2 ratio” value is inactive: -0.422.

Turning to UniProt Q14CX7_C339, the “log2 ratio” value is inactive: 0.129.

For the target GAMT C91 (UniProt Q14353), the “log2 ratio” value is inactive: 0.107.

Regarding NCAPD2 C439 (UniProt Q15021), the “log2 ratio” value is inactive: -0.31.

As for SART3 C537 (UniProt Q15020), the “log2 ratio” value was inactive: -0.0793.

With TTLL12 C361 (UniProt Q14166), the “log2 ratio” value is inactive: -0.071.

Turning to FHL1 C132 (UniProt Q13642), the “log2 ratio” value was inactive: -0.0307.

Turning to HLTF C360 (UniProt Q14527), the “log2 ratio” value is inactive: -0.178.

On to DDX39B C300 (UniProt Q13838), for which the “log2 ratio” value was inactive: -0.358.

With UniProt Q14574_C804, the “log2 ratio” value was inactive: 0.281.

Regarding CKAP5 C1019 (UniProt Q14008), the “log2 ratio” value was inactive: 0.0818.

Regarding ZNF638 C652 (UniProt Q14966), the “log2 ratio” value was inactive: 0.192.

As to CBX2 C222 (UniProt Q14781), the “log2 ratio” value is inactive: 0.0771.

For the target UniProt Q13885_C303, the “log2 ratio” value was inactive: 0.138.

Consider HNRNPD C226 (UniProt Q14103), for which the “log2 ratio” value is inactive: -0.252.

As to GAPVD1 C1129 (UniProt Q14C86), the “log2 ratio” value is inactive: 0.383.

Consider FLNC C1735 (UniProt Q14315), for which the “log2 ratio” value is inactive: -0.0456.

As for GANAB C423 (UniProt Q14697), the “log2 ratio” value is inactive: 0.0177.

Consider DYNC1H1 C3033 (UniProt Q14204), for which the “log2 ratio” value was inactive: 0.104.

As to FHL1 C31 (UniProt Q13642), the “log2 ratio” value is inactive: 0.129.

On to CUL3 C636 (UniProt Q13618), for which the “log2 ratio” value is inactive: 0.306.

Take SMC1A C1115 (UniProt Q14683): the “log2 ratio” value is inactive: 0.198.

Regarding BMS1 C895 (UniProt Q14692), the “log2 ratio” value was inactive: 0.0419.

As for PIN1 C113 (UniProt Q13526), the “log2 ratio” value was inactive: 0.238.

Take PIN1 C57 (UniProt Q13526): the “log2 ratio” value was inactive: 0.0674.

For the target AAMP C428 (UniProt Q13685), the “log2 ratio” value was inactive: 0.432.

On to CKAP5 C1500 (UniProt Q14008), for which the “log2 ratio” value was inactive: 0.0908.

For the target FHL1 C150 (UniProt Q13642), the “log2 ratio” value is inactive: -0.0485.

Turning to PUM1 C964 (UniProt Q14671), the “log2 ratio” value is inactive: 0.17.

Take DYNC1H1 C3573 (UniProt Q14204): the “log2 ratio” value was inactive: 0.144.

As to GOLGB1 C1285 (UniProt Q14789), the “log2 ratio” value was inactive: -0.247.

For GAPVD1 C568 (UniProt Q14C86), the “log2 ratio” value is inactive: 0.202.

Take UniProt Q13885_C354: the “log2 ratio” value is inactive: 0.235.

For PDCD11 C1218 (UniProt Q14690), the “log2 ratio” value is inactive: 0.258.

Regarding TRA2A C120 (UniProt Q13595), the “log2 ratio” value was inactive: 0.105.

The record behind these values is the supplement of paper PMC11006884.
